Test results from the supplement of paper PMC8728848.
The other results are listed elsewhere or left out.

How the values were obtained:
Assay in all cases: glycan array binding signal (z-score within array); higher = stronger binding
Details in all cases: glycan notation: IUPAC condensed, linker removed
[1] = target: Neu5Ac(a2-6)Gal(b1-4)GlcNAc(b1-3)GalNAc
Procedure, shortened: (§1)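 The Consortium for Functional Glycomics database supplied 3228 glycan arrays, of which those lacking an available protein sequence were dropped. The binding signal, a within-array Z-score, was averaged across arrays of the same protein sequence and across linkers. Negative scores can be read as non-binding.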

[2] = target: Neu5Ac(a2-6)Gal(b1-4)GlcNAc(b1-3)[Neu5Ac(a2-6)Gal(b1-4)GlcNAc(b1-6)]GalNAc
Procedure, shortened: as §1

[3] = target: Neu5Ac(a2-6)Gal(b1-4)GlcNAc(b1-6)GalNAc
Procedure, shortened: as §1

[4] = target: Neu5Ac(a2-6)Gal(b1-4)GlcNAc(b1-6)[Gal(b1-3)GlcNAc(b1-3)]Gal(b1-4)Glc
Procedure, shortened: as §1

[5] = target: Neu5Ac(a2-6)Gal(b1-4)GlcNAc(b1-6)[Gal(b1-3)]GalNAc
Procedure, shortened: as §1

[6] = target: Neu5Ac(a2-6)Gal(b1-4)GlcNAc6S
Procedure, shortened: as §1

[7] = target: Neu5Ac(a2-6)GalNAc
Procedure, shortened: as §1

[8] = target: Neu5Ac(a2-6)GalNAc(b1-4)GlcNAc
Procedure, shortened: as §1

[9] = target: Neu5Ac(a2-6)GalNAc(b1-4)GlcNAc6S
Procedure, shortened: as §1

[10] = target: Neu5Ac(a2-6)GlcNAc(b1-4)GlcNAc
Procedure, shortened: as §1

[11] = target: Neu5Ac(a2-6)GlcNAc(b1-4)GlcNAc(b1-4)GlcNAc
Procedure, shortened: as §1

[12] = target: Neu5Ac(a2-8)Neu5Ac
Procedure, shortened: as §1

[13] = target: Neu5Ac(a2-8)Neu5Ac(a2-3)Gal(b1-3)GalNAc(b1-4)[Neu5Ac(a2-3)]Gal(b1-4)Glc
Procedure, shortened: as §1

[14] = target: Neu5Ac(a2-8)Neu5Ac(a2-3)Gal(b1-3)GalNAc(b1-4)[Neu5Ac(a2-8)Neu5Ac(a2-3)]Gal(b1-4)Glc
Procedure, shortened: as §1

[15] = target: Neu5Ac(a2-8)Neu5Ac(a2-3)Gal(b1-4)Glc
Procedure, shortened: as §1

[16] = target: Neu5Ac(a2-8)Neu5Ac(a2-3)Gal(b1-4)GlcNAc
Procedure, shortened: as §1

[17] = target: Neu5Ac(a2-8)Neu5Ac(a2-3)[Gal(b1-3)GalNAc(b1-4)]Gal(b1-4)Glc
Procedure, shortened: as §1

[18] = target: Neu5Ac(a2-8)Neu5Ac(a2-3)[GalNAc(b1-4)]Gal(b1-4)Glc
Procedure, shortened: as §1

[19] = target: Neu5Ac(a2-8)Neu5Ac(a2-8)Neu5Ac
Procedure, shortened: as §1

[20] = target: Neu5Ac(a2-8)Neu5Ac(a2-8)Neu5Ac(a2-3)Gal(b1-4)Glc
Procedure, shortened: as §1

[21] = target: Neu5Ac(a2-8)Neu5Ac(a2-8)Neu5Ac(a2-3)[Gal(b1-3)GalNAc(b1-4)]Gal(b1-4)Glc
Procedure, shortened: as §1

[22] = target: Neu5Ac(a2-8)Neu5Ac(a2-8)Neu5Ac(a2-3)[GalNAc(b1-4)]Gal(b1-4)Glc
Procedure, shortened: as §1

[23] = target: Neu5Ac(a2-8)Neu5Ac(a2-8)Neu5Ac(a2-8)Neu5Ac(a2-3)[GalNAc(b1-4)]Gal(b1-4)Glc
Procedure, shortened: as §1

[24] = target: Neu5Ac(a2-8)Neu5Gc(a2-3)Gal(b1-4)GlcNAc
Procedure, shortened: as §1

[25] = target: Neu5Ac(b2-6)Gal(b1-4)GlcNAc
Procedure, shortened: as §1

[26] = target: Neu5Ac(b2-6)GalNAc
Procedure, shortened: as §1

[27] = target: Neu5Ac9Ac(a2-3)Gal(b1-3)GlcNAc
Procedure, shortened: as §1

[28] = target: Neu5Ac9Ac(a2-3)Gal(b1-4)GlcNAc
Procedure, shortened: as §1

[29] = target: Neu5Ac9Ac(a2-6)Gal(b1-4)GlcNAc
Procedure, shortened: as §1

[30] = target: Neu5Gc(a2-3)Gal(b1-3)GlcNAc
Procedure, shortened: as §1

[31] = target: Neu5Gc(a2-3)Gal(b1-3)[Fuc(a1-4)]GlcNAc
Procedure, shortened: as §1

[32] = target: Neu5Gc(a2-3)Gal(b1-4)Glc
Procedure, shortened: as §1

[33] = target: Neu5Gc(a2-3)Gal(b1-4)GlcNAc
Procedure, shortened: as §1

[34] = target: Neu5Gc(a2-3)Gal(b1-4)GlcNAc(b1-3)Gal(b1-4)GlcNAc(b1-2)Man(a1-3)[Neu5Gc(a2-3)Gal(b1-4)GlcNAc(b1-3)Gal(b1-4)GlcNAc(b1-2)Man(a1-6)]Man(b1-4)GlcNAc(b1-4)GlcNAc
Procedure, shortened: as §1

[35] = target: Neu5Gc(a2-3)Gal(b1-4)[Fuc(a1-3)]GlcNAc
Procedure, shortened: as §1

[36] = target: Neu5Gc(a2-6)Gal(b1-4)GlcNAc
Procedure, shortened: as §1

[37] = target: Neu5Gc(a2-6)GalNAc
Procedure, shortened: as §1

[38] = target: Neu5Gc(a2-8)Neu5Ac(a2-3)Gal(b1-4)GlcNAc
Procedure, shortened: as §1

[39] = target: Neu5Gc(a2-8)Neu5Gc(a2-3)Gal(b1-4)GlcNAc
Procedure, shortened: as §1

[40] = target: Neu5Gc(a2-8)Neu5Gc(a2-3)Gal(b1-4)GlcNAc(b1-3)Gal(b1-4)GlcNAc
Procedure, shortened: as §1

[41] = target: Neu5Gc(a2-8)Neu5Gc(a2-6)Gal(b1-4)GlcNAc
Procedure, shortened: as §1

[42] = target: Neu5Gc(b2-6)Gal(b1-4)GlcNAc
Procedure, shortened: as §1

B1: MFG-E8 (Mus musculus), P21956 (protein)
chain: MQVSRVLAALCGMLLCASGLFAASGDFCDSSLCLNGGTCLTGQDNDIYCLCPEGFTGLVCNETERGPCSPNPCYNDAKCLVTLDTQRGDIFTEYICQCPVGYSGIHCETETNYYNLDGEYMFTTAVPNTAVPTPAPTPDLSNNLASRCSTQLGMEGGAIADSQISASSVYMGFMGLQRWGPELARLYRTGIVNAWTASNYDSKPWIQVNLLRKMRVSGVMTQGASRAGRAEYLKTFKVAYSLDGRKFEFIQDESGGDKEFLGNLDNNSLKVNMFNPTLEAQYIKLYPVSCHRGCTLRFELLGCELHGCSEPLGLKNNTIPDSQMSASSSYKTWNLRAFGWYPHLGRLDNQGKINAWTAQSNSAKEWLQVDLGTQRQVTGIITQGARDFGHIQYVASYKVAHSDDGVQWTVYEEQGSSKVFQGNLDNNSHKKNIFEKPFMARYVRVLPVSWHNRITLRLELLGC
glycan array binding signal (z-score) [1]: 0.075
glycan array binding signal (z-score) [2]: -0.731
glycan array binding signal (z-score) [3]: -0.148
glycan array binding signal (z-score) [4]: 0.559
glycan array binding signal (z-score) [5]: 0.04
glycan array binding signal (z-score) [6]: 0.831
glycan array binding signal (z-score) [7]: -0.41
glycan array binding signal (z-score) [8]: -0.569
glycan array binding signal (z-score) [9]: 3.05
glycan array binding signal (z-score) [10]: 0.379
glycan array binding signal (z-score) [11]: 0.019
glycan array binding signal (z-score) [12]: -0.28
glycan array binding signal (z-score) [13]: 1.23
glycan array binding signal (z-score) [14]: 0.158
glycan array binding signal (z-score) [15]: -0.207
glycan array binding signal (z-score) [16]: 1.01
glycan array binding signal (z-score) [17]: -0.56
glycan array binding signal (z-score) [18]: -0.345
glycan array binding signal (z-score) [19]: -0.106
glycan array binding signal (z-score) [20]: -0.889
glycan array binding signal (z-score) [21]: 0.002
glycan array binding signal (z-score) [22]: -0.723
glycan array binding signal (z-score) [23]: -0.112
glycan array binding signal (z-score) [24]: 0.47
glycan array binding signal (z-score) [25]: -0.51
glycan array binding signal (z-score) [26]: -0.574
glycan array binding signal (z-score) [27]: -0.274
glycan array binding signal (z-score) [28]: 0.267
glycan array binding signal (z-score) [29]: -0.32
glycan array binding signal (z-score) [30]: -1.52
glycan array binding signal (z-score) [31]: 2.55
glycan array binding signal (z-score) [32]: 0.553
glycan array binding signal (z-score) [33]: 0.385
glycan array binding signal (z-score) [34]: -0.31
glycan array binding signal (z-score) [35]: -0.007
glycan array binding signal (z-score) [36]: -0.656
glycan array binding signal (z-score) [37]: -0.178
glycan array binding signal (z-score) [38]: -0.241
glycan array binding signal (z-score) [39]: -0.746
glycan array binding signal (z-score) [40]: 0.073
glycan array binding signal (z-score) [41]: -0.576
glycan array binding signal (z-score) [42]: -1.06
